# Laboratory results: the supplement of paper PMC10032668
# Protein sequences, listed by entry. Tags and fused reporters are not part of them.
# CKS2, P33552, UniProt P33552, whole entry: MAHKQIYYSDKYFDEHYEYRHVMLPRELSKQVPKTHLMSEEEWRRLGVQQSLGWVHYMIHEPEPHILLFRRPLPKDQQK
# PPP2R1A, P30153, UniProt P30153, whole entry: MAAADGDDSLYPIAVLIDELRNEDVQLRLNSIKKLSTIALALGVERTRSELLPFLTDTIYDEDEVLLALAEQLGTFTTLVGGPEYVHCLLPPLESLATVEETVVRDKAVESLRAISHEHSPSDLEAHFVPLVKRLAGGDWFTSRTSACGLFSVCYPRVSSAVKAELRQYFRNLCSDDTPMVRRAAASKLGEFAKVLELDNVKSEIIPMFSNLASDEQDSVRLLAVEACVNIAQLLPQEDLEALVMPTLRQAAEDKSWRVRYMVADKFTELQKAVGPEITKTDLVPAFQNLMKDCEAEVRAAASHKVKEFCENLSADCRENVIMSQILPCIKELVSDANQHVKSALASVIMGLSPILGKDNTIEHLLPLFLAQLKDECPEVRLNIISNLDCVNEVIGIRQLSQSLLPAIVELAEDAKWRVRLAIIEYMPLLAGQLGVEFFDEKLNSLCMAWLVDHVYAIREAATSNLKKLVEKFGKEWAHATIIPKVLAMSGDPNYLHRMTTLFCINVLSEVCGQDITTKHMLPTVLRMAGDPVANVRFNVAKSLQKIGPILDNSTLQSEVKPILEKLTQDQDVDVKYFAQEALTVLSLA
# RBBP4, Q09028, UniProt Q09028, whole entry: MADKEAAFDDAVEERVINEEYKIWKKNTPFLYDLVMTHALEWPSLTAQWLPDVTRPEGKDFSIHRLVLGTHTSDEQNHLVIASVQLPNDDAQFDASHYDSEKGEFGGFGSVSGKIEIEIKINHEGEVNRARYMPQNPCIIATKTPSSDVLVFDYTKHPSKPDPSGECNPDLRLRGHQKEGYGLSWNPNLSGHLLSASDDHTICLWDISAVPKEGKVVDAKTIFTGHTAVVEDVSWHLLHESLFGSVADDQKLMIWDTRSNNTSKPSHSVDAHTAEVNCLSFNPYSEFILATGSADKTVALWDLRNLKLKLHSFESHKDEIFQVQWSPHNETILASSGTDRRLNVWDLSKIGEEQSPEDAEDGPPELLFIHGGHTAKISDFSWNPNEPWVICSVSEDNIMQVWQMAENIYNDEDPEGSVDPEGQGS
# SMARCC1, Q92922, UniProt Q92922, whole entry: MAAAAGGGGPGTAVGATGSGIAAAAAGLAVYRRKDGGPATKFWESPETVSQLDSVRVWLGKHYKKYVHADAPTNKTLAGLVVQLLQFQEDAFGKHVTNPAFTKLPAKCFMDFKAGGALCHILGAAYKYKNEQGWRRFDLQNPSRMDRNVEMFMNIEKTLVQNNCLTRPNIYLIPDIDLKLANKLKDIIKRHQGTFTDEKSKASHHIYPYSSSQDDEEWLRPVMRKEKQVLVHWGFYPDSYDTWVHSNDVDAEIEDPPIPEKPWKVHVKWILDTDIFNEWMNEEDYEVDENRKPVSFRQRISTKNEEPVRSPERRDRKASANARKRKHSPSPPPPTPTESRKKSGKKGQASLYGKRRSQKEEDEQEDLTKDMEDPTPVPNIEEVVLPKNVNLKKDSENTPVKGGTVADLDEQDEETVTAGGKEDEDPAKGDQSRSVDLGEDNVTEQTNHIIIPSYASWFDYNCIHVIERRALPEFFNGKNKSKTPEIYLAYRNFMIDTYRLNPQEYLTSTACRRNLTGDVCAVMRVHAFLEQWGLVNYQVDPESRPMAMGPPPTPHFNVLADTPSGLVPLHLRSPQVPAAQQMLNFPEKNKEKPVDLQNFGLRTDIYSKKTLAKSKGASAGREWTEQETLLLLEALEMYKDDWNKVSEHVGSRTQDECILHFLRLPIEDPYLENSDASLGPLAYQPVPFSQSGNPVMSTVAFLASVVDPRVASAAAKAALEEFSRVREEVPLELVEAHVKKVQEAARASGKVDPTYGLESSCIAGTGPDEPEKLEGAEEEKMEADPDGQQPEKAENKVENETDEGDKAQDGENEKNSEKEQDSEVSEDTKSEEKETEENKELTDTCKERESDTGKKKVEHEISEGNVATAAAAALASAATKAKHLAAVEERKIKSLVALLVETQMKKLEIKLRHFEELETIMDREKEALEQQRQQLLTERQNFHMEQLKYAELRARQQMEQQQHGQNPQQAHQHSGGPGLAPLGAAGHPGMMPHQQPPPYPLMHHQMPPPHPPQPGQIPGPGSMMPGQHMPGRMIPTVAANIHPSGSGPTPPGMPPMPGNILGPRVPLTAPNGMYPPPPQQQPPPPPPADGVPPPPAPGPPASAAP
# SMC2, O95347, UniProt O95347, whole entry: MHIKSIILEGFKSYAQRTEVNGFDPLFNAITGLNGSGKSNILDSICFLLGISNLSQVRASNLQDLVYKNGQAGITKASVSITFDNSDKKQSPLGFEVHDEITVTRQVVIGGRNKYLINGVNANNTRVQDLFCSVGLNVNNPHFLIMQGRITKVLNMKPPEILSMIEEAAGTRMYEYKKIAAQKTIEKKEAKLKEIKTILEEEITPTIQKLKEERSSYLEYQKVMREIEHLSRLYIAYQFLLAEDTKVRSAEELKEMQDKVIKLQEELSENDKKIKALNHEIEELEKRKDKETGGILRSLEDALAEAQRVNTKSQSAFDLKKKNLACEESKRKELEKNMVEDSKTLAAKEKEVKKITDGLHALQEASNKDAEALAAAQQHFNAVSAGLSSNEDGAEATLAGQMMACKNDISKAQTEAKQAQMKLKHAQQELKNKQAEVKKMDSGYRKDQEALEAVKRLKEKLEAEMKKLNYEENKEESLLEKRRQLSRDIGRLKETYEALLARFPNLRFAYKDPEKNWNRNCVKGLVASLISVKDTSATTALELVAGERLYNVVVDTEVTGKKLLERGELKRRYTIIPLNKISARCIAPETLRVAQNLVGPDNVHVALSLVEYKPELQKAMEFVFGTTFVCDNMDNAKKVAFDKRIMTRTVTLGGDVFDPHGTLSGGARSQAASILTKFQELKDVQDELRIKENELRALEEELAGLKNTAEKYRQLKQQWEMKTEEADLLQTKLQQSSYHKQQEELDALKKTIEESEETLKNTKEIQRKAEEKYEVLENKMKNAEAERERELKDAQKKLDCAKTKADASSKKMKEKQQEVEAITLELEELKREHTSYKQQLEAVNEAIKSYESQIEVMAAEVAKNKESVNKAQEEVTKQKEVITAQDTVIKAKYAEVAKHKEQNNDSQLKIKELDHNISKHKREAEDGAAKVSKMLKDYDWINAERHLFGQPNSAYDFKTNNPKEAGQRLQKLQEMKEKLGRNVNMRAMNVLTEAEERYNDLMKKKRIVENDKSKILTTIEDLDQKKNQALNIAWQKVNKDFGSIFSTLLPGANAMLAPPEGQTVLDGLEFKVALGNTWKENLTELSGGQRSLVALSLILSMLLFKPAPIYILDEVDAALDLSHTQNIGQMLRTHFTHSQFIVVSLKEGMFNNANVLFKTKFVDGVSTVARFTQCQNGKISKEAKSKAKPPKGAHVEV
# SP1, P08047, UniProt P08047, whole entry: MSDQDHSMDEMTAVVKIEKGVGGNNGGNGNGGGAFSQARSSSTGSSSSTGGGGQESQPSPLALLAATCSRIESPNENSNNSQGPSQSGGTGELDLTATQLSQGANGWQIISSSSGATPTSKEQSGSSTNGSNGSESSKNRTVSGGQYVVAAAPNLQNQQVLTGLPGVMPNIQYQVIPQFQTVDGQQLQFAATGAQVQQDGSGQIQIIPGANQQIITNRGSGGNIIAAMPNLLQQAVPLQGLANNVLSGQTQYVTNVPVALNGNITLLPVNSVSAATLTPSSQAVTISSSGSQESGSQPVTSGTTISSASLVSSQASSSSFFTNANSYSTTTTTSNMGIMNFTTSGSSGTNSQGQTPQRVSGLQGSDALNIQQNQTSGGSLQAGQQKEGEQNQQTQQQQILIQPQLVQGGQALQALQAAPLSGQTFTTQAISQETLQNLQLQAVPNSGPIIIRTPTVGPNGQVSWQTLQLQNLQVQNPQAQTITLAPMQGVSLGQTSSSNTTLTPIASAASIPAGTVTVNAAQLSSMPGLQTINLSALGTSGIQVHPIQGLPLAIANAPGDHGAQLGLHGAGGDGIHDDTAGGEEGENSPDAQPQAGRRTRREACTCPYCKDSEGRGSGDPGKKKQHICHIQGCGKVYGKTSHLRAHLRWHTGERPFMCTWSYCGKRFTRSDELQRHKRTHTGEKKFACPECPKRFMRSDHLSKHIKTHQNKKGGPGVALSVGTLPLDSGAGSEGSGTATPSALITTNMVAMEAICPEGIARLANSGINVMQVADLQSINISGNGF
# Some of the results follow. The list holds hits alone, and they repeat only in part.
# Assays:
# Assay in all cases: PRISMA enrichment of interactor (LFQ) in peptide spot vs all other peptide spots (log2 fold change); higher = stronger / more specific binding of the interactor to the peptide
# ALDH2, P05091 = target: ALDH2, P05091
# Method: (§1)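 PRISMA: 15-aa overlapping tiles (offset 8 aa) of 60 microproteins, plus SOS1/GLUT1 control peptides, were spot-synthesized on cellulose membranes in triplicate. Membranes were incubated with benzonase-treated HEK293T lysate, and bound proteins were identified by LC-MS/MS with LFQ. Enrichment is the log2 fold change of each protein in one spot versus all other spots. Only interactors passing the significance cutoff are listed.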
# ARF5, P84085 = target: ARF5, P84085
# Method: as §1
# ATP5F1D, P30049 = target: ATP5F1D, P30049
# Method: as §1
# BOLA3, Q53S33 = target: BOLA3, Q53S33
# Method: as §1
# CARM1, Q86X55 = target: CARM1, Q86X55
# Method: as §1
# CDC45, O75419 = target: CDC45, O75419
# Method: as §1
# CIAPIN1, Q6FI81 = target: CIAPIN1, Q6FI81
# Method: as §1
# CKAP4, Q07065 = target: CKAP4, Q07065
# Method: as §1
# CKS2, P33552 = target: CKS2, P33552
# Method: as §1
# CREB1, P16220 = target: CREB1, P16220
# Method: as §1
# CRNKL1, Q9BZJ0 = target: CRNKL1, Q9BZJ0
# Method: as §1
# DHX29, Q7Z478 = target: DHX29, Q7Z478
# Method: as §1
# DNAJB11, Q9UBS4 = target: DNAJB11, Q9UBS4
# Method: as §1
# ELP1, O95163 = target: ELP1, O95163
# Method: as §1
# FAM168A, Q92567 = target: FAM168A, Q92567
# Method: as §1
# FAM98A, Q8NCA5 = target: FAM98A, Q8NCA5
# Method: as §1
# GCLM, P48507 = target: GCLM, P48507
# Method: as §1
# HMMR, O75330 = target: HMMR, O75330
# Method: as §1
# HSPA4, P34932 = target: HSPA4, P34932
# Method: as §1
# HSPH1, Q92598 = target: HSPH1, Q92598
# Method: as §1
# LETM1, O95202 = target: LETM1, O95202
# Method: as §1
# MBNL1, Q9NR56 = target: MBNL1, Q9NR56
# Method: as §1
# MCM10, Q7L590 = target: MCM10, Q7L590
# Method: as §1
# MRPL54, Q6P161 = target: MRPL54, Q6P161
# Method: as §1
# NFX1, Q12986 = target: NFX1, Q12986
# Method: as §1
# NOP56, O00567 = target: NOP56, O00567
# Method: as §1
# POU2F1, P14859 = target: POU2F1, P14859
# Method: as §1
# PPP2R1A, P30153 = target: PPP2R1A, P30153
# Method: as §1
# PRDX4, Q13162 = target: PRDX4, Q13162
# Method: as §1
# PRPF31, Q8WWY3 = target: PRPF31, Q8WWY3
# Method: as §1
# QRICH1, Q2TAL8 = target: QRICH1, Q2TAL8
# Method: as §1
# RBBP4, Q09028 = target: RBBP4, Q09028
# Method: as §1
# RBM26, Q5T8P6 = target: RBM26, Q5T8P6
# Method: as §1
# RNF2, Q99496 = target: RNF2, Q99496
# Method: as §1
# RPRD1A, Q96P16 = target: RPRD1A, Q96P16
# Method: as §1
# RRP15, Q9Y3B9 = target: RRP15, Q9Y3B9
# Method: as §1
# SIRT1, Q96EB6 = target: SIRT1, Q96EB6
# Method: as §1
# SMARCC1, Q92922 = target: SMARCC1, Q92922
# Method: as §1
# SMC2, O95347 = target: SMC2, O95347
# Method: as §1
# SP1, P08047 = target: SP1, P08047
# Method: as §1
# TIAL1, Q01085 = target: TIAL1, Q01085
# Method: as §1
# YTHDF3, Q7Z739 = target: YTHDF3, Q7Z739
# Method: as §1
# ZC2HC1A, Q96GY0 = target: ZC2HC1A, Q96GY0
# Method: as §1
binder,measurement,setting,value
QMQSAFQNVFVLHMT [RP11-432J24.5_2],PRISMA enrichment of interactor (log2),"ALDH2, P05091",4.2
same,PRISMA enrichment of interactor (log2),"ARF5, P84085",4.15
same,PRISMA enrichment of interactor (log2),"ATP5F1D, P30049",4.83
same,PRISMA enrichment of interactor (log2),"BOLA3, Q53S33",4.04
same,PRISMA enrichment of interactor (log2),"CARM1, Q86X55",4.11
same,PRISMA enrichment of interactor (log2),"CDC45, O75419",4.3
same,PRISMA enrichment of interactor (log2),"CIAPIN1, Q6FI81",6.12
same,PRISMA enrichment of interactor (log2),"CKAP4, Q07065",6.12
same,PRISMA enrichment of interactor (log2),"CKS2, P33552",4.59
same,PRISMA enrichment of interactor (log2),"CREB1, P16220",4.43
same,PRISMA enrichment of interactor (log2),"CRNKL1, Q9BZJ0",4.21
same,PRISMA enrichment of interactor (log2),"DHX29, Q7Z478",5.87
same,PRISMA enrichment of interactor (log2),"DNAJB11, Q9UBS4",4.54
same,PRISMA enrichment of interactor (log2),"ELP1, O95163",3.99
same,PRISMA enrichment of interactor (log2),"FAM168A, Q92567",4.89
same,PRISMA enrichment of interactor (log2),"FAM98A, Q8NCA5",5.15
same,PRISMA enrichment of interactor (log2),"GCLM, P48507",4.4
same,PRISMA enrichment of interactor (log2),"HMMR, O75330",5.02
same,PRISMA enrichment of interactor (log2),"HSPA4, P34932",10.6
same,PRISMA enrichment of interactor (log2),"HSPH1, Q92598",6.01
same,PRISMA enrichment of interactor (log2),"LETM1, O95202",6.2
same,PRISMA enrichment of interactor (log2),"MBNL1, Q9NR56",4.07
same,PRISMA enrichment of interactor (log2),"MCM10, Q7L590",4.59
same,PRISMA enrichment of interactor (log2),"MRPL54, Q6P161",5.15
same,PRISMA enrichment of interactor (log2),"NFX1, Q12986",6.02
same,PRISMA enrichment of interactor (log2),"NOP56, O00567",4.93
same,PRISMA enrichment of interactor (log2),"POU2F1, P14859",4.54
same,PRISMA enrichment of interactor (log2),"PPP2R1A, P30153",5.89
same,PRISMA enrichment of interactor (log2),"PRDX4, Q13162",5.89
same,PRISMA enrichment of interactor (log2),"PRPF31, Q8WWY3",4.75
same,PRISMA enrichment of interactor (log2),"QRICH1, Q2TAL8",6.38
same,PRISMA enrichment of interactor (log2),"RBBP4, Q09028",4.56
same,PRISMA enrichment of interactor (log2),"RBM26, Q5T8P6",4.41
same,PRISMA enrichment of interactor (log2),"RNF2, Q99496",4.5
same,PRISMA enrichment of interactor (log2),"RPRD1A, Q96P16",5.15
same,PRISMA enrichment of interactor (log2),"RRP15, Q9Y3B9",4.49
same,PRISMA enrichment of interactor (log2),"SIRT1, Q96EB6",4.66
same,PRISMA enrichment of interactor (log2),"SMARCC1, Q92922",7.77
same,PRISMA enrichment of interactor (log2),"SMC2, O95347",4.52
same,PRISMA enrichment of interactor (log2),"SP1, P08047",5.29
same,PRISMA enrichment of interactor (log2),"TIAL1, Q01085",4.81
same,PRISMA enrichment of interactor (log2),"YTHDF3, Q7Z739",4.77
same,PRISMA enrichment of interactor (log2),"ZC2HC1A, Q96GY0",8.01

# Not a retest: an excerpt of the list.
binder,measurement,setting,value
QMQSAFQNVFVLHMT [RP11-432J24.5_2],PRISMA enrichment of interactor (log2),"DHX29, Q7Z478",5.87
same,PRISMA enrichment of interactor (log2),"DNAJB11, Q9UBS4",4.54
same,PRISMA enrichment of interactor (log2),"ELP1, O95163",3.99
